From PubChem BioAssay AID2685 (National Center for Advancing Translational Sciences (NCATS), 2010) come the findings set out here.

The nature of this assay: qHTS Assay for Lipid Storage Modulators in Drosophila S3 Cells.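 On cell number change: cells counted by Cell Tracker Red CMTPX staining in the red channel.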 The conditions noted are these: BODIPY lipid droplet fluorescence, 18-24 h; for cell number change: measured here: cell count max response, cells fed with added oleic acid. Put shortly:
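Drosophila S3 cells got compounds at several concentrations plus oleic acid (400 uM solution). Laser-scanning cytometry with 488 nm excitation read lipid droplets at 500-530 nm and cells at 575-640 nm. Percent activity was relative to 20 uM Triacsin C.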
In general terms: In qHTS, concentration-response curves come from the screen itself.

Where [1] appears, read: measured here: lipid fluorescence (Fed channel) AC50, cells fed with added oleic acid.
Where [2] appears, read: measured here: cell number channel AC50, cells fed with added oleic acid.

This is one part of the list. These are further read-outs of the screen, such as a control signal, another cell line or another target. No call is given for them. Compounds called inactive in the main read-out are mostly missing here. Words in brackets tell the shape of the fitted curve; partial curves, single points and poor fits give uncertain potencies.

With `COc1ccc(Nc2cc(C(=O)NCCCN3CCN(C)CC3)c3ccccc3n2)cc1OC`, the cell number change was -12.1%.
On to `CCN(CC)S(=O)(=O)c1ccc(C(=O)OCC(=O)c2ccc3c(c2)NC(=O)CO3)cc1`, for which the cell number change is -11.5%. For the same compound, the AC50 under setting [1] was 32.6 µM [falling, single point].
On to `OC(COc1ccc(OCc2ccccc2)cc1)CN1CCCCC1` (stereo unspecified), for which the cell number change was -23.8%. The AC50 under setting [2] is 2.06 µM [falling, full curve, poor fit]. For the same compound, the AC50 under setting [1] is 29.1 µM [falling, single point].
Turning to `COc1cc(-c2nnc3n2N=C(c2ccccc2)CS3)cc(OC)c1OC`, the cell number change was -19.2%.
In the case of `COc1cccc(C(=O)NCC(=O)N2CCN(c3ccc(C(F)(F)F)cn3)CC2)c1`, the cell number change was 35.3%. In addition, the AC50 under setting [2] was 11.6 µM [rising, single point].
As to `CN1C2=CC=CC=CC2=[N+](C)C12C([N+](=O)[O-])=CC(=[N+]([O-])[O-])C=C2[N+](=O)[O-]` (stereo unspecified), the cell number change is -9.93%.
For the compound `Cc1cccc(C(=O)N2CCN(c3ccc(C(F)(F)F)cn3)CC2)c1C`, the cell number change stood at 19.1%. For the same compound, the AC50 under setting [2] was 4.61 µM [falling, partial curve, poor fit]. Besides, the AC50 under setting [1] is 0.58 µM [falling, single point].
As for `O=C1CN(S(=O)(=O)c2ccccc2)CC(=O)N1CCc1ccccc1`, the cell number change is -138%. Besides, the AC50 under setting [1] is 0.651 µM [falling, single point].
`C=CCOC(=O)C(=O)/C=C/c1csc2ccccc12`: the cell number change is -42.8%. Further, the AC50 under setting [2] was 18.4 µM [falling, single point].
For the compound `O=C(/C=C/c1ccco1)Nc1ccccc1C(=O)O`, the cell number change was -16.6%.
For the compound `O=C(CN1CCN(c2ccccn2)CC1)Nc1ccc(Oc2ccccc2)cc1`, the cell number change is 38.2%. Further, the AC50 under setting [2] is 29.1 µM [rising, single point].
For `CC(c1ccccc1)n1c(-c2ccc(Cl)cc2)n[nH]c1=S` (stereo unspecified), the cell number change is -34.9%. Moreover, the half-maximal activity concentration (AC50) under setting [2] is 14.6 µM [falling, partial curve, poor fit].
With `CN1CCN(C(=O)C23CC4CC(CC(C4)C2)C3)CC1`, the cell number change is -54.7%. For the same compound, the AC50 under setting [2] was 18.4 µM [falling, single point]. Besides, the AC50 under setting [1] is 18.4 µM [falling, single point].
As for `COc1ccc(C=O)cc1COc1ccc(F)cc1F`, the cell number change is 17%.
Regarding `O=C(CSc1nc2ccccc2[nH]1)Nc1ccc2[nH]c(=O)[nH]c2c1`, the cell number change stood at 2.51%. Further, under setting [2], the AC50 is 7.31 µM [falling, partial curve, poor fit].
For `NC(=O)c1oc2ccccc2c1NC(=O)c1ccc(F)cc1`, the AC50 reads like this: under setting [2], 1.46 µM [rising, partial curve]; under setting [1], 0.517 µM [rising, full curve].
For `CC(=O)Nc1ncc(Cc2ccc(Cl)cc2Cl)s1`, the cell number change was -5.14%. Also, the AC50 under setting [2] is 6.51 µM [falling, single point].
In the case of `COc1ccc(C2c3ccc(O)cc3Oc3ncn4nc(-c5cccnc5)nc4c32)cc1OC` (stereo unspecified), the cell number change was -32%. For the same compound, the AC50 under setting [2] is 1.46 µM [falling, partial curve]. The AC50 under setting [1] was 1.46 µM [falling, partial curve, poor fit].
In the case of `CCc1ccc(CN2CCC(N3CCC(C(=O)N4CCCC4)CC3)CC2)o1`, the cell number change was found to be 51.8%. In addition, the AC50 under setting [2] is 29.1 µM [rising, single point].
`Nc1c(C(=O)Nc2ccc(Cl)cc2)oc2ccccc12`: the cell number change was 36.2%. Besides, under setting [2], the concentration at half-maximal activity (AC50) is 3.26 µM [rising, single point].
Consider `CCCc1nc(SCC(=O)NNC(=O)c2ccc(OC)cc2)c2ccccc2n1`, for which the cell number change is -5.08%. Besides, the AC50 under setting [1] is 7.31 µM [falling, partial curve, poor fit].
For the compound `Cc1cc(C)cc(NC(=O)CSc2nnc(Cc3cccn3C)n2-c2ccc(F)cc2)c1`, the cell number change stood at 8.51%. Besides, under setting [2], the AC50 was 2.06 µM [rising, partial curve].
For `O=C(NC(=S)NCc1cccnc1)c1ccccc1F`, the cell number change stood at 20.6%. In addition, the AC50 under setting [2] was 0.184 µM [rising, full curve, poor fit].
Turning to `CC(C)(C)c1cnnn1-c1ccc(-c2csc(N)n2)cc1`, the cell number change stood at 106%. Also, under setting [2], the AC50 is 16.4 µM [rising, partial curve]. Moreover, under setting [1], the half-maximal activity concentration (AC50) is 18.4 µM [rising, partial curve].
For the compound `COc1cccc(NC(=O)CCc2nc(-c3ccccc3F)no2)c1`, the cell number change was -24.4%. Besides, the AC50 under setting [2] was 3.26 µM [falling, single point].
In the case of `NS(=O)(=O)c1ccc(CCNC(=O)COC(=O)C2CCCN2C(=O)c2cccs2)cc1` (stereo unspecified), the cell number change stood at 0.606%.
With `C=CCn1c(SCC(=O)Nc2ccc3c(c2)OCCO3)nnc1-c1ccccn1`, the cell number change came out at 53.6%. Also, the AC50 under setting [2] is 5.17 µM [rising, full curve, poor fit]. Under setting [1], the AC50 is 1.64 µM [rising, partial curve].
In the case of `Cc1ccccc1NC(=O)COC(=O)/C=C/c1cccc(C(F)(F)F)c1`, the cell number change stood at 19.3%. Besides, the AC50 under setting [1] was 0.00517 µM [rising, full curve, poor fit].
Regarding `CCOC(=O)Cc1csc(NC(=O)Nc2ccc(F)cc2)n1`, the cell number change stood at 1.47%. Moreover, the concentration at half-maximal activity (AC50) under setting [2] was 6.51 µM [rising, single point]. Also, the AC50 under setting [1] was 7.31 µM [rising, single point].
On to `CC(=O)c1ccc(NC(=O)C2CCC(C)(C(=O)O)C2(C)C)cc1` (stereo unspecified), for which the cell number change is -1.15%.
For `Cc1cnc(C(=O)N(CC(C)C)c2c(N)n(CC(C)C)c(=O)[nH]c2=O)cn1`, the cell number change was -14.3%. Also, the AC50 under setting [1] is 6.51 µM [rising, single point].
As for `C/C(=N\NC(=O)CNc1cccc2ccccc12)c1ccc(Br)s1`, the cell number change is -21.1%. For the same compound, the AC50 under setting [1] was 32.6 µM [falling, single point].
With `CCCn1c(N)c(C(=O)CN(C)CC(=O)Nc2ccc(F)cc2)c(=O)[nH]c1=O`, the cell number change is -2.76%. Besides, the AC50 under setting [1] is 0.517 µM [falling, single point].
In the case of `CCOc1ccc(OCC)c(NC(=O)CSc2nc3ccccc3c(=O)n2C)c1`, the cell number change was -24.7%.
On to `COc1ccc(-c2csc(NC(=O)C3CCCCN3S(=O)(=O)c3ccccc3)n2)cc1` (stereo unspecified), for which the cell number change is -43.8%. In addition, the AC50 under setting [2] is 25.9 µM [falling, single point]. The AC50 under setting [1] was 20.6 µM [falling, partial curve].
On to `COc1ccc(Cl)cc1NC(=O)Cn1c(C)csc1=O`, for which the cell number change came out at 8.99%. In addition, the AC50 under setting [1] was 0.0517 µM [rising, full curve, poor fit].
In the case of `O=C1N(Cc2cccnc2)C[C@@H]2C[C@@H](c3cccc(C(F)(F)F)c3)N3CCC[C@@]123`, the cell number change was -9.66%.
On to `Cc1ccc(C)c(OCCSc2nnc(-c3cccnc3)n2N)c1`, for which the cell number change worked out at 2.37%. Besides, the AC50 under setting [2] is 0.92 µM [rising, partial curve, poor fit]. Also, the AC50 under setting [1] was 0.651 µM [rising, partial curve, poor fit].

A word on the AC50: it is the concentration at which the activity in the assay is half-maximal. High values mean activity only at high concentration, low ones activity at low concentration.
